Measured values as given in patent publication US11793208B2, “Antimicrobial treatment of animal carcasses and food products” (EVONIK OPERATIONS GMBH, priority 2017, dated 2023).

Assays:
[1] = Color of treated poultry offal by visual inspection; conditions: 8-10 seconds
[2] = Water holding capacity of lamb livers treated with PAA solutions; conditions: 1 hour at 22° C.; for Δ Wf, % (WHC): drip dry 1 hour
[3] = PAA 100 ppm, pH 7.5 (sodium carbonate)
[4] = PAA 100 ppm, pH 8.5 (sodium carbonate)
[5] = PAA 500 ppm, pH 7.5 (sodium carbonate)
[6] = PAA 500 ppm, pH 8.5 (sodium carbonate)

CC(=O)OO [PAA, Peracetic acid]
Color ([1]; Gizzards, 840 ppm PAA adjusted to pH 10.2 with sodium hydroxide): natural
Color ([1]; Gizzards, 840 ppm PAA, pH 3.4): bleached
Color ([1]; Livers, 840 ppm PAA adjusted to pH 10.2 with sodium hydroxide): natural
Color ([1]; Livers, 840 ppm PAA, pH 3.4): bleached
Δ WS, % ([2]; PAA 100 ppm, pH 4.1): 6.7%
Δ Wf, % (WHC) ([2]; PAA 100 ppm, pH 4.1): 2.2%
Δ WS, % [2, 3]: 8.5%
Δ Wf, % (WHC) [2, 3]: 7.4%
Δ WS, % [2, 4]: 9.1%
Δ Wf, % (WHC) [2, 4]: 4.7%
Δ WS, % ([2]; PAA 500 ppm, pH 3.3): 6.4%
Δ Wf, % (WHC) ([2]; PAA 500 ppm, pH 3.3): 0.4%
Δ WS, % [2, 5]: 6.7%
Δ Wf, % (WHC) [2, 5]: 3.1%
Δ WS, % [2, 6]: 7.9%
Δ Wf, % (WHC) [2, 6]: 4.0%
